The values that follow come from patent US20220193251A1 (Ludwig-Maximilians-Universitaet Muenchen, priority 2020, published 2022).

The series in a line: general procedure: solution-phase peptide synthesis; PyBOP/DIPEA; HOBt/DIPEA with PNP carbonate; OSu esters. The settings on record: conjugation step, TFA salt.

Consider Boc-Glu-(VC-PAB-MMAE)2, for which the conjugation yield is 55.8%.
